# Where a name gives a salt, the structure may show the parent alone. The list shows a part of the results. Most entries show no effect beyond the scatter of the controls.
# Tested on: hPSC-derived cortical neurons (WA09)
# Test: nucleus area z-score vs screen plate; higher = larger nuclei (more mature)
# Details: 5 µM; treatment: days 7-14 after plating, readout day 21
row,SMILES,nucleus area z-score
1,N.N.O=C([O-])C[O-].[Pt+2] [Nedaplatin],-5.27
2,CCC1(c2c[nH]cn2)Cc2ccccc2C1 [Atipamezole],0.845
3,CN1CCc2c(c3ccccc3n2Cc2ccc(C(=O)NO)cc2)C1 [Tubastatin A HCl],-0.0416
4,O=C(CCNNC(=O)c1ccncc1)NCc1ccccc1 [Nialamide],0.488
5,CC(=O)OCC(=O)[C@@]12N=C(C)O[C@@H]1C[C@H]1[C@@H]3CCC4=CC(=O)C=C[C@]4(C)[C@H]3[C@@H](O)C[C@@]12C [Deflazacort],0.2
6,Cc1cc(NS(=O)(=O)c2ccc(N)cc2)no1 [Sulfamethoxazole],0.257
7,Oc1nc(-c2ccc(C(F)(F)F)cc2)nc2c1CSCC2,1.25
8,CC1(COc2ccc3c(c2)ncn3-c2ccc3cccc(N4CCC(N)CC4)c3n2)COC1,0.165
9,N=C(N)N [Guanidine HCl],-0.156
10,Cc1cnc(C(=O)NCCc2ccc(S(=O)(=O)NC(=O)NC3CCCCC3)cc2)cn1 [Glipizide],-0.0259
11,Nc1ncnc2c1c(-c1cnc3[nH]ccc3c1)nn2C1CCCC1,-5.23
12,C/C=C1/[C@H](O[C@@H]2O[C@H](CO)[C@@H](O)[C@H](O)[C@H]2O)OC=C(C(=O)OC)[C@H]1CC(=O)OCCc1ccc(O)c(O)c1 [Oleuropein],0.213
13,N#Cc1ccc(-c2c(-c3ncn[nH]3)sc(N3CCOCC3)c2C#N)c(F)c1,-6.48
14,CC(=O)Oc1cc2c(s1)CCN(C(C(=O)C1CC1)c1ccccc1F)C2 (stereo not given) [Prasugrel],1.84
15,O=C(Nc1ccc(-c2ccnc(Nc3ccc(N4CCOCC4)cc3)n2)cc1)C1CCCN1 (stereo not given),-0.122

# Single entries from the entries so far.
# Value for N=C(N)N [Guanidine HCl] under nucleus area z-score: -0.156
# Value for O=C(CCNNC(=O)c1ccncc1)NCc1ccccc1 [Nialamide] under nucleus area z-score: 0.488
